The record followed here is the supplement of paper PMC4604168 (melanoma cell lines).

This is one part of the list. Repeats are few or missing, and single values can be far off.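 Cells were imaged in 1,536-well plates, and nuclei stained with an antibody against cleaved PARP were counted against all DNA-stained nuclei to give the apoptosis fraction. Screening doses were chosen to leave most cells alive, and resting and induced cleaved-PARP levels differ strongly between cell lines.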

In the experiment the test system is SkMel28. Description: cleaved PARP positive nuclei fraction relative to DMSO control; melanoma cells; higher = more apoptosis. Conditions: library dose: low library concentration; 72 h.
Regarding `C=CCn1c(=O)c2cnc(Nc3ccc(N4CCN(C)CC4)cc3)nc2n1-c1cccc(C(C)(C)O)n1` + CCCCCCCCCCCC1=C(O)C(=O)C=C(O)C1=O [Embelin] (first compound 0.02 µM, partner dose 1.2 µM), the “cleaved PARP positive nuclei fraction” value was 130%.
Under `Cc1cc(N2CCOCC2)cc2[nH]c(-c3c(NC[C@@H](O)c4cccc(Cl)c4)cc[nH]c3=O)nc12` + COc1ccc(-c2ccc3c(N4CCOCC4)nc(N4C[C@@H](C)O[C@@H](C)C4)nc3n2)cc1CO [KU0063794] (first compound 0.2 µM, partner dose 0.02 µM) stands 98.3%.
Under `COCC[n+]1c2c(n(Cc3cnccn3)c1C)C(=O)c1ccccc1C2=O` + O=C1NC(=O)/C(=C/c2ccc(-c3ccc(F)cc3O)o2)S1 [AS252424] (first compound 0.0004 µM, partner dose 1 µM) stands 179%; under `Cn1nnc2c(C(N)=O)ncn2c1=O` [temozolomide] + CCc1ccc(CCOc2ccc(CC3SC(=O)NC3=O)cc2)nc1 [pioglitazone] (first compound 2 µM, partner dose 2 µM), 160%.
Under `C#Cc1cccc(Nc2ncnc3cc(OCCOC)c(OCCOC)cc23)c1` [erlotinib] + Oc1cc(-c2nc(-c3ccccc3)[nH]c2-c2ccncc2)ccc1Cl [L779450] (first compound 0.8 µM, partner dose 0.2 µM) stands 110%; under `Cc1ccc(NC(=O)c2cccc(N(C)C)c2)cc1NC(=O)c1ccc(O)cc1` + CCN(CC)CCCCNc1ncc2cc(-c3cc(OC)cc(OC)c3)c(NC(=O)NC(C)(C)C)nc2n1 [PD173074] (first compound 2 µM, partner dose 0.1 µM), 128%.
Take `Cn1cncc1[C@@](N)(c1ccc(Cl)cc1)c1ccc2c(c1)c(-c1cccc(Cl)c1)cc(=O)n2C` [tipifarnib] + CCCCCCCCCCCC1=C(O)C(=O)C=C(O)C1=O [Embelin] (first compound 0.01 µM, partner dose 1.2 µM): the “cleaved PARP positive nuclei fraction” value was found to be 86%.
Under `O=C(CCCCCCC(=O)Nc1ccccc1)NO` [vorinostat] + c1cc(-c2cnn3cc(-c4ccc(OCCN5CCCCC5)cc4)cnc23)ccn1 [Dorsomorphin] (first compound 0.08 µM, partner dose 0.4 µM) stands 120%; under `NC(=O)Nc1cc(-c2cccc(F)c2)sc1C(=O)N[C@H]1CCCNC1` + COC(=O)c1sccc1S(=O)(=O)Nc1ccc(Nc2ccccc2)cc1OC [GSK0660] (first compound 0.02 µM, partner dose 1 µM), 89.2%; under `Cc1nc(Nc2ncc(C(=O)Nc3c(C)cccc3Cl)s2)cc(N2CCN(CCO)CC2)n1` [dasatanib] + Oc1nc(-c2ccc(C(F)(F)F)cc2)nc2c1CSCC2 [XAV939] (first compound 0.004 µM, partner dose 2 µM), 154%.
Under `Cn1cncc1[C@@](N)(c1ccc(Cl)cc1)c1ccc2c(c1)c(-c1cccc(Cl)c1)cc(=O)n2C` [tipifarnib] + Oc1cc(-c2nc(-c3ccccc3)[nH]c2-c2ccncc2)ccc1Cl [L779450] (first compound 0.01 µM, partner dose 0.2 µM) stands 161%; under `O=C(CCCCCCC(=O)Nc1ccccc1)NO` [vorinostat] + COc1ccc(COc2ccc(Cc3cnc(N)nc3N)cc2OC)cc1 [GW2580] (first compound 0.08 µM, partner dose 1 µM), 194%; under `O=C(CCCCCCC(=O)Nc1ccccc1)NO` [vorinostat] + COc1cc(N2CCC(N3CCN(C)CC3)CC2)ccc1Nc1ncc(Cl)c(Nc2ccccc2S(=O)(=O)C(C)C)n1 [NVP-TAE684] (first compound 0.08 µM, partner dose 0.08 µM), 136%.
Take `OCCn1cc(-c2cnc3nnn(Cc4ccc5ncccc5c4)c3n2)cn1` + Oc1nc(-c2ccc(C(F)(F)F)cc2)nc2c1CSCC2 [XAV939] (first compound 1 µM, partner dose 2 µM): the “cleaved PARP positive nuclei fraction” value came out at 81%.
Under `Cn1nnc2c(C(N)=O)ncn2c1=O` [temozolomide] + COc1ccc(COc2ccc(Cc3cnc(N)nc3N)cc2OC)cc1 [GW2580] (first compound 2 µM, partner dose 1 µM) stands 171%; under `C=CCn1c(=O)c2cnc(Nc3ccc(N4CCN(C)CC4)cc3)nc2n1-c1cccc(C(C)(C)O)n1` + COc1ccc(COc2ccc(Cc3cnc(N)nc3N)cc2OC)cc1 [GW2580] (first compound 0.02 µM, partner dose 1 µM), 129%; under `NC(=O)Nc1cc(-c2cccc(F)c2)sc1C(=O)N[C@H]1CCCNC1` + Cn1cc(/C=C2\C(=O)Nc3cccnc32)c2ccccc21 [GW441756] (first compound 0.02 µM, partner dose 0.4 µM), 170%.
Under `CO[C@@H]1[C@H](N(C)C(=O)c2ccccc2)C[C@H]2O[C@]1(C)n1c3ccccc3c3c4c(c5c6ccccc6n2c5c31)C(=O)NC4` [Midostaurin] + O=C(O)C(=O)Nc1sc2c(c1C(=O)O)CCNC2 [TCS401] (first compound 0.08 µM, partner dose 1.66667 µM) stands 84.3%.
Under `C#Cc1cccc(Nc2ncnc3cc(OCCOC)c(OCCOC)cc23)c1` [erlotinib] + COc1cc2ncnc(Nc3ccc(Oc4ccccc4)cc3)c2cc1OC [SrcI1] (first compound 0.8 µM, partner dose 2 µM) stands 71.1%; under `Cn1cncc1[C@@](N)(c1ccc(Cl)cc1)c1ccc2c(c1)c(-c1cccc(Cl)c1)cc(=O)n2C` [tipifarnib] + COc1ccc2c(c1)CCC1C2CCC2(C)C(NCCCCCCN3C(=O)C=CC3=O)CCC12 [U73122] (first compound 0.01 µM, partner dose 0.4 µM), 136%.
Turning to `O=C(Nc1cccc(Cl)c1)Nc1ncc(CCNc2ncnc3ccsc23)s1` + O=C(O)C(=O)Nc1sc2c(c1C(=O)O)CCNC2 [TCS401] (first compound 0.0008 µM, partner dose 1.66667 µM), the “cleaved PARP positive nuclei fraction” value was found to be 150%.
Under `C=CCn1c(=O)c2cnc(Nc3ccc(N4CCN(C)CC4)cc3)nc2n1-c1cccc(C(C)(C)O)n1` + O=S(=O)(c1ccccc1)N(CC(F)(F)F)c1ccc(C(O)(C(F)(F)F)C(F)(F)F)cc1 [T0901317] (first compound 0.02 µM, partner dose 1.4 µM) stands 126%.
For `CC(C)(C)c1cnc(CSc2cnc(NC(=O)C3CCNCC3)s2)o1` + c1cc(-c2cnn3cc(-c4ccc(OCCN5CCCCC5)cc4)cnc23)ccn1 [Dorsomorphin] (first compound 0.01 µM, partner dose 0.4 µM), the “cleaved PARP positive nuclei fraction” value was 129%.
As to `O=C(CCCCCCC(=O)Nc1ccccc1)NO` [vorinostat] + O=S(=O)(c1ccccc1)N(CC(F)(F)F)c1ccc(C(O)(C(F)(F)F)C(F)(F)F)cc1 [T0901317] (first compound 0.08 µM, partner dose 1.4 µM), the “cleaved PARP positive nuclei fraction” value amounted to 136%.
Under `Cn1c(Nc2ccc(C(F)(F)F)cc2)nc2cc(Oc3ccnc(-c4ncc(C(F)(F)F)[nH]4)c3)ccc21` + COC(=O)c1sccc1S(=O)(=O)Nc1ccc(Nc2ccccc2)cc1OC [GSK0660] (first compound 0.08 µM, partner dose 1 µM) stands 282%.
Under `C#Cc1cccc(Nc2ncnc3cc(OCCOC)c(OCCOC)cc23)c1` [erlotinib] + O=C(Nc1ccccc1)c1cc([N+](=O)[O-])ccc1Cl [GW9662] (first compound 0.8 µM, partner dose 2 µM) stands 188%; under `Cc1cc(N2CCOCC2)cc2[nH]c(-c3c(NC[C@@H](O)c4cccc(Cl)c4)cc[nH]c3=O)nc12` + O=C(O)C(=O)Nc1sc2c(c1C(=O)O)CCNC2 [TCS401] (first compound 0.2 µM, partner dose 1.66667 µM), 179%.
Under `Nc1cccc2c1CN(C1CCC(=O)NC1=O)C2=O` (stereo not drawn) [lenalidomide] + Oc1nc(-c2ccc(C(F)(F)F)cc2)nc2c1CSCC2 [XAV939] (first compound 1 µM, partner dose 2 µM) stands 175%.
For `Cn1c(Nc2ccc(C(F)(F)F)cc2)nc2cc(Oc3ccnc(-c4ncc(C(F)(F)F)[nH]4)c3)ccc21` + COc1ccc(COc2ccc(Cc3cnc(N)nc3N)cc2OC)cc1 [GW2580] (first compound 0.08 µM, partner dose 1 µM), the “cleaved PARP positive nuclei fraction” value turned out to be 134%.
Consider `C[C@]1(c2nc3c(C(N)=O)cccc3[nH]2)CCCN1` [Veliparib] + CC(C)CCN1c2nc(Nc3cc(F)c(O)c(F)c3)ncc2N(C)C(=O)C1C [BID1870] (first compound 1.4 µM, partner dose 0.2 µM), for which the “cleaved PARP positive nuclei fraction” value turned out to be 112%.
Take `C=CCn1c(=O)c2cnc(Nc3ccc(N4CCN(C)CC4)cc3)nc2n1-c1cccc(C(C)(C)O)n1` + CCc1ccc(CCOc2ccc(CC3SC(=O)NC3=O)cc2)nc1 [pioglitazone] (first compound 0.02 µM, partner dose 2 µM): the “cleaved PARP positive nuclei fraction” value worked out at 51.7%.
For the compound `C=CCn1c(=O)c2cnc(Nc3ccc(N4CCN(C)CC4)cc3)nc2n1-c1cccc(C(C)(C)O)n1` + COC(=O)c1sccc1S(=O)(=O)Nc1ccc(Nc2ccccc2)cc1OC [GSK0660] (first compound 0.02 µM, partner dose 1 µM), the “cleaved PARP positive nuclei fraction” value turned out to be 91.7%.
For `C#Cc1cccc(Nc2ncnc3cc(OCCOC)c(OCCOC)cc23)c1` [erlotinib] + COc1ccc2c(c1)CCC1C2CCC2(C)C(NCCCCCCN3C(=O)C=CC3=O)CCC12 [U73122] (first compound 0.8 µM, partner dose 0.4 µM), the “cleaved PARP positive nuclei fraction” value worked out at 136%.
